Laboratory results: patent publication US20260274954A1 (published 2026)
Changes are numbered by the printed parent chain. These are yes or no findings as the source states them, for the method shown. Binding can be weak; no strength is given.

B1: 2E5 (antibody, V domains shown)
VH: QVQLVQSGAEVKKPGSSVKVSCKASGFTFTTYYISWVRQAPGQGLEYLGYINMGSGGTNYNEKFKGRVTITADKSTSTAYMELSSLRSEDTAVYYCAIIGYFDYWGQGTMVTVSS
VL: DVVMTQSPLSLPVTLGQPASISCRSSQSLLDSDGGTYLYWFQQRPGQSPRRLIYLVSTLGSGVPDRFSGSGSGTDFTLKISRVEAEDVGVYYCMQLTHWPYTFGQGTKLEIK
B2: 1H6 (antibody, V domains shown)
VH: B1 VH with I99L
VL: B1 VL
B3: 2C2 (antibody, V domains shown)
VH: B1 VH
VL: B1 VL with G35A
B4: 2G4 (antibody, V domains shown)
VH: B1 VH
VL: B1 VL with G35S

target: cynomolgus PD-1 on activated cynomolgus PBMC (cynomolgus); test: FACS on activated cynomolgus PBMC

Question: B1 was tested. Which binding did it give?
Answer: Its binding is “binds”.

Question: With B2 as the binder, how does the binding read?
Answer: Its binding is “binds”.

Question: Which binding does the source give for B3 here?
Answer: The binding was “binds”.

Question: How did the binding turn out when B4 was run?
Answer: Its binding is “binds”.
